Sequences of proteins named here, by UniProt entry; tags and fusion partners are left off. A change or cut given only in a name is not applied to a line headed by its entry.
UniProt P25043: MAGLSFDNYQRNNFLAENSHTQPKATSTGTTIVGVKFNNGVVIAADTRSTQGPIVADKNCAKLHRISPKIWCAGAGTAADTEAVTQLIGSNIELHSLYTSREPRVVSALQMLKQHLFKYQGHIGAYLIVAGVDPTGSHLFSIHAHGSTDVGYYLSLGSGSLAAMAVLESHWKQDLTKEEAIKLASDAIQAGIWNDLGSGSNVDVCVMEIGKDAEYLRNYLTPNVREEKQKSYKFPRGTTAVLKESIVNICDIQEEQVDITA

According to article doi:10.1101/2020.04.06.027847:

Molecular target: T1, Scs3 (S. cerevisiae) (UniProt P53012)
T1 sequence: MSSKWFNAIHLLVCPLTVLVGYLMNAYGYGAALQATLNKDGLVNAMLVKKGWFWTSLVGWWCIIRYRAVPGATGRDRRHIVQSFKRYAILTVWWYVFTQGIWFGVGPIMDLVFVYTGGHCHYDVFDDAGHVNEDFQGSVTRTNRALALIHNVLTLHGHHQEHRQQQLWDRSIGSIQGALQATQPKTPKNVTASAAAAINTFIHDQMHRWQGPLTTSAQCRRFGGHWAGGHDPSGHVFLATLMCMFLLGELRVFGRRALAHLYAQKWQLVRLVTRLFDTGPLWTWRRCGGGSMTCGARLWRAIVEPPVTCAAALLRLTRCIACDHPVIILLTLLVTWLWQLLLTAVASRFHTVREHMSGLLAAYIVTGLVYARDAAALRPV
Assay: two-hybrid

binding: binds
Substance: Pup1 (from UniProt P25043)

Results are given in words; binding and its absence hold for the method and conditions named. Binding calls can cover weak binding; strength is not graded here.
